Earlier results in patent US20230102379A1 (priority 2020, published 2023).
At least one compound was matched to its structure with a doubt left.

Test system: HLB
Conditions: foliar sprays; cited from earlier work

With CN(C)[C@@H]1C(O)=C(C(N)=O)C(=O)[C@@]2(O)C(O)=C3C(=O)c4c(O)cccc4[C@@](C)(O)[C@H]3[C@H](O)[C@@H]12 [oxytetracycline] as the compound, how does the “control of HLB (in words)” value read?
The value was “ineffective at controlling HLB”.
